Experimental data taken from US4643989A, “Inhibition of aldosterone secretion” (The Salk Institute for Biological Studies, priority 1984, dated 1987).
Part of at least one peptide drawing is inferred or uncertain, most often the ends. Some entries repeat one wording, which the source may state once for all of them. Where a SMILES comes first, the peptide text is derived from it. Bridges are numbered along the chain shown (N, C = ends).

Test system: rat adrenoglomerulosa cells
Test: Basal secretion of aldosterone by rat glomerulosa cells (radioimmunoassay)
Assay type: cell-based
Conditions: compared with rANF(8-33) results of Example II
Method: Rat adrenoglomerulosa cells are obtained by enzymatic digest of adrenals harvested from peripubertal male Sprague Dawley rats(Holtzman, 125 g) using previously described methods, and testing is carried out to determine the effect of synthetic rANF(8-33) on the basal secretion of aldosterone by rat glomerulosa cells. Rat glomerulosa cells are prepared by enzymatic digestion of 20 rat adrenals after ennucleation. The cells remaining on the capsule are digested for 30 minutes with a mixture of collagenase and DNase (4 mg/ml, 4 μg/ml). Dispersed cells are filtered through gauze and centrifuged at 800 rpm for 15 minutes. The pellet is resuspended in M199 buffer containing 0.1% bovine serum albumin(BSA), and the cells are centrifuged at 800 rpm for 15 minutes. The cell pellet is again resuspended in M199-0.1% BSA buffer and distributed in 900-μl aliquots to 12×75 plastic tubes. The samples are preincubated for 90 minutes in a 37° C. waterbath under an atmosphere of 5% CO2 -95% O2. Aliquots of the test samples are added in a 100 μl volume and incubated for 4 hours. Aldosterone and corticosterone are measured by radioimmunoassay using antisera purchased from Endocrine Sciences, Oxnard, Calif. and [^3 H]-labelled steroid from New England Nuclear, Boston, Mass. Results are the mean±SEM of 7 replicates. Statistical analysis is performed by analysis of variance, and all points are significant (p<0.01) from control. In concentrations as low as ≤10^-9 M, there is a significant (p<0.01) inhibition of aldosterone synthesis that is even more accentuated when the higher concentrations are tested (p<0.001).

Row | SMILES | testing as set forth in Example II (inhibition of aldosterone secretion by rat glomerulosa cells)
1 | CC[C@H](C)[C@@H]1NC(=O)[C@H](CCCNC(=N)N)NC(=O)[C@H](CC(=O)O)NC(=O)[C@H](CCSC)NC(=O)[C@H](CCCNC(=N)N)NC(=O)CNC(=O)CNC(=O)[C@H](Cc2ccccc2)NC(=O)[C@@H](NC(=O)[C@H](CO)NC(=O)[C@H](CO)NC(=O)[C@H](CCCNC(=N)N)NC(=O)[C@@H](N)CCCNC(=N)N)CSSC[C@@H](C(=O)N[C@@H](CC(N)=O)C(=O)N[C@@H](CO)C(=O)N[C@@H](Cc2ccccc2)C(=O)N[C@@H](Cc2ccc(O)cc2)C(=O)O)NC(=O)CNC(=O)[C@H](CC(C)C)NC(=O)CNC(=O)[C@H](CO)NC(=O)[C@H](CCC(N)=O)NC(=O)[C@H](C)NC(=O)CNC1=O [[desArg^32]-hANF(8-33)] (H-RRSSCFGGRMDRIGAQSGLGCNSFY-OH; disulfide 5-21) | comparable results
2 | CC[C@H](C)[C@@H]1NC(=O)[C@H](CCCNC(=N)N)NC(=O)[C@H](CC(=O)O)NC(=O)[C@H](CCSC)NC(=O)[C@H](CCCNC(=N)N)NC(=O)CNC(=O)CNC(=O)[C@H](Cc2ccccc2)NC(=O)[C@@H](NC(=O)[C@H](CO)NC(=O)[C@H](CO)NC(=O)[C@H](CCCNC(=N)N)NC(=O)[C@@H](N)CCCNC(=N)N)CSSC[C@@H](C(=O)N[C@@H](CC(N)=O)C(=O)N[C@@H](CO)C(=O)N[C@@H](Cc2ccccc2)C(=O)N[C@@H](CCCNC(=N)N)C(=O)N[C@@H](Cc2ccc(O)cc2)C(N)=O)NC(=O)CNC(=O)[C@H](CC(C)C)NC(=O)CNC(=O)[C@H](CO)NC(=O)[C@H](CCC(N)=O)NC(=O)[C@H](C)NC(=O)CNC1=O [hANF(8-33)--NH2] (H-RRSSCFGGRMDRIGAQSGLGCNSFRY-NH2; disulfide 5-21) | comparable results
3 | CC[C@H](C)[C@@H]1NC(=O)[C@H](CCCNC(=N)N)NC(=O)[C@H](CC(=O)O)NC(=O)[C@H](CCSC)NC(=O)[C@H](CCCNC(=N)N)NC(=O)CNC(=O)CNC(=O)[C@H](Cc2ccccc2)NC(=O)[C@@H](NC(=O)[C@H](CO)NC(=O)[C@H](CO)NC(=O)[C@H](CCCNC(=N)N)NC(=O)[C@@H](N)CCCNC(=N)N)CSSC[C@@H](C(=O)N[C@@H](CC(N)=O)C(=O)N[C@@H](CO)C(=O)N[C@@H](Cc2ccccc2)C(=O)N[C@@H](CCCNC(=N)N)C(N)=O)NC(=O)CNC(=O)[C@H](CC(C)C)NC(=O)CNC(=O)[C@H](CO)NC(=O)[C@H](CCC(N)=O)NC(=O)[C@H](C)NC(=O)CNC1=O [hANF(8-32)--NH2] (H-RRSSCFGGRMDRIGAQSGLGCNSFR-NH2; disulfide 5-21) | comparable results
4 | CC[C@H](C)[C@@H]1NC(=O)[C@H](CCCNC(=N)N)NC(=O)[C@H](CC(=O)O)NC(=O)[C@H](CCSC)NC(=O)[C@H](CCCNC(=N)N)NC(=O)CNC(=O)CNC(=O)[C@H](Cc2ccccc2)NC(=O)[C@@H](NC(=O)[C@H](CO)NC(=O)[C@H](CO)NC(=O)[C@H](CCCNC(=N)N)NC(=O)[C@@H](N)CCCNC(=N)N)CSSC[C@@H](C(=O)N[C@@H](CC(N)=O)C(=O)N[C@@H](CO)C(=O)N[C@@H](Cc2ccccc2)C(=O)N[C@@H](CCCNC(=N)N)C(=O)O)NC(=O)CNC(=O)[C@H](CC(C)C)NC(=O)CNC(=O)[C@H](CO)NC(=O)[C@H](CCC(N)=O)NC(=O)[C@H](C)NC(=O)CNC1=O [hANF(8-32)] (H-RRSSCFGGRMDRIGAQSGLGCNSFR-OH; disulfide 5-21) | comparable results
5 | CC[C@H](C)[C@@H]1NC(=O)[C@H](CCCNC(=N)N)NC(=O)[C@H](CC(=O)O)NC(=O)[C@H](CCSC)NC(=O)[C@H](CCCNC(=N)N)NC(=O)CNC(=O)CNC(=O)[C@H](Cc2ccccc2)NC(=O)[C@@H](NC(=O)[C@H](CO)NC(=O)[C@H](CO)NC(=O)[C@H](CCCNC(=N)N)NC(=O)[C@H](CCCNC(=N)N)NC(=O)[C@H](CC(C)C)NC(=O)[C@H](CO)NC(=O)[C@H](CCCNC(=N)N)NC(=O)[C@@H]2CCCN2C(=O)CN)CSSC[C@@H](C(=O)N[C@@H](CC(N)=O)C(=O)N[C@@H](CO)C(=O)N[C@@H](Cc2ccccc2)C(=O)N[C@@H](CCCNC(=N)N)C(=O)N[C@@H](Cc2ccc(O)cc2)C(=O)O)NC(=O)CNC(=O)[C@H](CC(C)C)NC(=O)CNC(=O)[C@H](CO)NC(=O)[C@H](CCC(N)=O)NC(=O)[C@H](C)NC(=O)CNC1=O [hANF(3-33)] | comparable results
6 | CC[C@H](C)[C@@H]1NC(=O)[C@H](CCCNC(=N)N)NC(=O)[C@H](CC(=O)O)NC(=O)[C@H](CCSC)NC(=O)[C@H](CCCNC(=N)N)NC(=O)CNC(=O)CNC(=O)[C@H](Cc2ccccc2)NC(=O)[C@@H](NC(=O)[C@H](CO)NC(=O)[C@H](CO)NC(=O)[C@H](CCCNC(=N)N)NC(=O)[C@H](CCCNC(=N)N)NC(=O)[C@H](CO)NC(=O)[C@@H](N)CCCNC(=N)N)CSSC[C@@H](C(=O)N[C@@H](CC(N)=O)C(=O)N[C@@H](CO)C(=O)N[C@@H](Cc2ccccc2)C(=O)N[C@@H](CCCNC(=N)N)C(=O)O)NC(=O)CNC(=O)[C@H](CC(C)C)NC(=O)CNC(=O)[C@H](CO)NC(=O)[C@H](CCC(N)=O)NC(=O)[C@H](C)NC(=O)CNC1=O [[desLeu^7]-hANF(5-32)] (H-RSRRSSCFGGRMDRIGAQSGLGCNSFR-OH; disulfide 7-23) | comparable results
7 | CC[C@H](C)[C@@H]1NC(=O)[C@H](CCCNC(=N)N)NC(=O)[C@H](CC(=O)O)NC(=O)[C@H](CCSC)NC(=O)[C@H](CCCNC(=N)N)NC(=O)CNC(=O)CNC(=O)[C@H](Cc2ccccc2)NC(=O)[C@@H](NC(=O)[C@H](CO)NC(=O)[C@H](CO)NC(=O)[C@H](CCCNC(=N)N)NC(=O)[C@H](CCCNC(=N)N)NC(=O)[C@H](CC(C)C)NC(=O)[C@H](CO)NC(=O)[C@H](CCCNC(=N)N)NC(=O)[C@@H]2CCCN2C(=O)CNC(=O)[C@H](C)NC(=O)[C@@H](N)CC(C)C)CSSC[C@@H](C(=O)N[C@@H](CC(N)=O)C(=O)N[C@@H](CO)C(=O)N[C@@H](Cc2ccccc2)C(=O)N[C@@H](CCCNC(=N)N)C(=O)N[C@@H](Cc2ccc(O)cc2)C(=O)O)NC(=O)CNC(=O)[C@H](CC(C)C)NC(=O)CNC(=O)[C@H](CO)NC(=O)[C@H](CCC(N)=O)NC(=O)[C@H](C)NC(=O)CNC1=O [hANF(1-33)] | comparable results
8 | CC[C@H](C)[C@@H]1NC(=O)[C@H](CCCNC(=N)N)NC(=O)[C@H](CC(=O)O)NC(=O)[C@H](CCSC)NC(=O)[C@H](CCCNC(=N)N)NC(=O)CNC(=O)CNC(=O)[C@H](Cc2ccccc2)NC(=O)[C@@H](NC(=O)[C@H](CO)NC(=O)[C@H](CO)NC(=O)[C@H](CCCNC(=N)N)NC(=O)[C@H](CCCNC(=N)N)NC(=O)[C@H](CC(C)C)NC(=O)[C@H](CO)NC(=O)[C@@H](N)CCCNC(=N)N)CSSC[C@@H](C(=O)N[C@@H](CC(N)=O)C(=O)N[C@@H](CO)C(=O)N[C@@H](Cc2ccccc2)C(=O)N[C@@H](CCCNC(=N)N)C(=O)N[C@@H](Cc2ccc(O)cc2)C(=O)O)NC(=O)CNC(=O)[C@H](CC(C)C)NC(=O)CNC(=O)[C@H](CO)NC(=O)[C@H](CCC(N)=O)NC(=O)[C@H](C)NC(=O)CNC1=O [hANF(5-33)] | comparable results
9 | CC[C@H](C)[C@@H]1NC(=O)[C@H](CCCNC(=N)N)NC(=O)[C@H](CC(=O)O)NC(=O)[C@H](CCSC)NC(=O)[C@H](CCCNC(=N)N)NC(=O)CNC(=O)CNC(=O)[C@H](Cc2ccccc2)NC(=O)[C@@H](NC(=O)[C@H](CO)NC(=O)[C@H](CO)NC(=O)[C@H](CCCNC(=N)N)NC(=O)[C@H](CCCNC(=N)N)NC(=O)[C@H](CC(C)C)NC(=O)[C@H](CO)NC(=O)[C@@H](N)CCCNC(=N)N)CSSC[C@@H](C(=O)N[C@@H](CC(N)=O)C(=O)N[C@@H](CO)C(=O)N[C@@H](Cc2ccccc2)C(=O)N[C@@H](Cc2ccc(O)cc2)C(=O)O)NC(=O)CNC(=O)[C@H](CC(C)C)NC(=O)CNC(=O)[C@H](CO)NC(=O)[C@H](CCC(N)=O)NC(=O)[C@H](C)NC(=O)CNC1=O [[desArg^32]-hANF(5-33)] | comparable results
